The values below come from publication PMC3422339.

No constants are given. Whether binding was seen depends on the method and setting. For some of these results: In cells and extracts the contact can be indirect. Some entries that bind do so weakly or less than the wild type. For some of these results: Sequences can lack the tags named with a protein.

The target of assay [1] is T1, AtNF-YC6 (Arabidopsis thaliana) (UniProt Q9FGP7).
T1 sequence: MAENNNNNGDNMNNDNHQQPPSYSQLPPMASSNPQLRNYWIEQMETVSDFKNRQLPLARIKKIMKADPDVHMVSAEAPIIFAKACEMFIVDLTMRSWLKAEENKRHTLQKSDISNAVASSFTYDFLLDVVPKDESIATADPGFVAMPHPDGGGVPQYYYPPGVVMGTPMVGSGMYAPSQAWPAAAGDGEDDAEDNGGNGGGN
Description: two-hybrid; colony (plate) assay, Figure 1A as the text tells it: AtNF-YCs fused to GAL4 DBD (bait), AtNF-YBs to GAL4 AD (prey); S. cerevisiae PJ69-4A diploids; YSD lacking Leu, Trp and Ade or His with 50 mM 3-aminotriazole; 28°C, 4 days; read-outs His, Ade, LacZ.

Assay [2] deals with T2, AtNF-YB2 (Arabidopsis thaliana) (UniProt Q9FGJ3).
T2 sequence: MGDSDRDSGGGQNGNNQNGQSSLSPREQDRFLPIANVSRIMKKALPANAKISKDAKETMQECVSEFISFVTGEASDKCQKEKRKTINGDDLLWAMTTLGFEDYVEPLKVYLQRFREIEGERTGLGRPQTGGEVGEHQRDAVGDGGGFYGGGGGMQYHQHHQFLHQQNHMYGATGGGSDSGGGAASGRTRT
The assay is described as follows: two-hybrid; colony (plate) assay, Figure 1B as the text tells it: AtNF-YBs fused to GAL4 DBD (bait), AtNF-YCs to GAL4 AD (prey); S. cerevisiae PJ69-4A diploids; YSD lacking Leu, Trp and Ade or His with 50 mM 3-aminotriazole; 28°C, 4 days; read-outs His, Ade, LacZ.

Assay [3] deals with T3, AtNF-YB3 (Arabidopsis thaliana) (UniProt O23310).
T3 sequence: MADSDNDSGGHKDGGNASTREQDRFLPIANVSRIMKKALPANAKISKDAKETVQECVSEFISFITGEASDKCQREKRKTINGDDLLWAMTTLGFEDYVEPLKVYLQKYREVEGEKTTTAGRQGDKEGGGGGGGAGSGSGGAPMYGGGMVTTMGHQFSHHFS
Described as above.

The target of assay [4] is T4, His-tagged recombinant L1L/AtNF-YB6 (Arabidopsis thaliana) (UniProt Q84W66).
T4 sequence: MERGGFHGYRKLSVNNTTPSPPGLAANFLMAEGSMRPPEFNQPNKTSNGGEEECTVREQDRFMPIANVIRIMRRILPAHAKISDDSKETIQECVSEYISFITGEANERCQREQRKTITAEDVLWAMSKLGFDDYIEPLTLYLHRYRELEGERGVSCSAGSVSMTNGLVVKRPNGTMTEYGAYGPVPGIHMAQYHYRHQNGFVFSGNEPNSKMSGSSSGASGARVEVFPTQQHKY
The assay is described as follows: co-renaturation of denatured subunits; single His-tagged HFD subunits from E. coli inclusion bodies, denatured and renatured when mixed together; both purified.

The target of assay [5] is T5, 6His-LEC1/AtNF-YB9 HFD (AA 56-148) (Arabidopsis thaliana) (UniProt Q9SFD8).
T5 sequence: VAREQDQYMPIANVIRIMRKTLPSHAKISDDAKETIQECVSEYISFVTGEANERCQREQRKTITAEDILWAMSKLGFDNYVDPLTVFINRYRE
Description: pull-down; co-expression of the HFDs in E. coli BL21(DE3); Ni-chelate affinity co-purification from the soluble extract by the 6His tag of the AtNF-YB; buffer A (10 mM Tris pH 8.0, 400 mM NaCl, 2 mM MgCl2, 5 mM imidazole), eluted with 100 mM imidazole; SDS-PAGE, Coomassie.

The target in assay [6] is T2, AtNF-YB2 (Arabidopsis thaliana). The assay is described as follows: two-hybrid; liquid LacZ assay (beta-galactosidase, ONPG, Miller units), semi-quantitative; AtNF-YB (DBD) and AtNF-YC (AD) configuration; control AtNF-YB GAL4-DBD with empty GAL4-AD.
Assay [7] concerns the target T3, AtNF-YB3 (Arabidopsis thaliana). Described as above.
Assay [8] addresses T6, AtNF-YB10 (Arabidopsis thaliana) (UniProt Q67XJ2).
T6 sequence: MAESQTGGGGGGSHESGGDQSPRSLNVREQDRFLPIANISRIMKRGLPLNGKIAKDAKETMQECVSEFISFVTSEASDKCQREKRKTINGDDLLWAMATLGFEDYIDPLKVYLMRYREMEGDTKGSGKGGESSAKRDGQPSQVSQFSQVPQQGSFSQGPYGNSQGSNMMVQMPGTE
The assay is described as above.

Assay [9] concerns the target T7, AtNF-YB7 (Arabidopsis thaliana) (UniProt Q9SIT9).
T7 sequence: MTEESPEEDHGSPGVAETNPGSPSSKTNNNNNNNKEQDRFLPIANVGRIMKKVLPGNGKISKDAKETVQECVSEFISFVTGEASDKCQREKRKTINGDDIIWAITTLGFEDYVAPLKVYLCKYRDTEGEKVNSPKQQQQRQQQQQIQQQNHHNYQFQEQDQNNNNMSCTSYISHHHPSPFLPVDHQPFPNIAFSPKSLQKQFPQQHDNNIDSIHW
Described as above.

In assay [10] the target is T6, AtNF-YB10 (Arabidopsis thaliana). Description: two-hybrid; colony (plate) assay, Figure 1B as the text tells it: AtNF-YBs fused to GAL4 DBD (bait), AtNF-YCs to GAL4 AD (prey); S. cerevisiae PJ69-4A diploids; YSD lacking Leu, Trp and Ade or His with 50 mM 3-aminotriazole; 28°C, 4 days; read-outs His, Ade, LacZ.

B1: AtNF-YB2 (protein, UniProt Q9FGJ3 1-190)
chain: MGDSDRDSGGGQNGNNQNGQSSLSPREQDRFLPIANVSRIMKKALPANAKISKDAKETMQECVSEFISFVTGEASDKCQKEKRKTINGDDLLWAMTTLGFEDYVEPLKVYLQRFREIEGERTGLGRPQTGGEVGEHQRDAVGDGGGFYGGGGGMQYHQHHQFLHQQNHMYGATGGGSDSGGGAASGRTRT
B1: in assay [1], the binding entry is recorded as “binds weakly”.

B2: AtNF-YC9 (protein, UniProt Q8L4B2 1-231)
chain: MDQQDHGQSGAMNYGTNPYQTNPMSTTAATVAGGAAQPGQLAFHQIHQQQQQQQLAQQLQAFWENQFKEIEKTTDFKNHSLPLARIKKIMKADEDVRMISAEAPVVFARACEMFILELTLRSWNHTEENKRRTLQKNDIAAAVTRTDIFDFLVDIVPREDLRDEVLGSIPRGTVPEAAAAGYPYGYLPAGTAPIGNPGMVMGNPGGAYPPNPYMGQPMWQQQAPDQPDQEN
B2: the binding entry in assay [2] and in assay [3] was “binds” throughout.

B3: AtNF-YC4 (protein, UniProt Q9FMV5 1-250)
chain: MDNNNNNNNQQPPPTSVYPPGSAVTTVIPPPPSGSASIVTGGGATYHHLLQQQQQQLQMFWTYQRQEIEQVNDFKNHQLPLARIKKIMKADEDVRMISAEAPILFAKACELFILELTIRSWLHAEENKRRTLQKNDIAAAITRTDIFDFLVDIVPREEIKEEEDAASALGGGGMVAPAASGVPYYYPPMGQPAVPGGMMIGRPAMDPSGVYAQPPSQAWQSVWQNSAGGGDDVSYGSGGSSGHGNLDSQG
As to B3, the binding result in assay [2] and in assay [3] was “binds” throughout.

B4: His-tagged recombinant AtNF-YC7 (protein, UniProt Q9FGP8 1-212)
chain: MEENNGNNNHYLPQPSSSQLPPPPLYYQSMPLPSYSLPLPYSPQMRNYWIAQMGNATDVKHHAFPLTRIKKIMKSNPEVNMVTAEAPVLISKACEMLILDLTMRSWLHTVEGGRQTLKRSDTLTRSDISAATTRSFKFTFLGDVVPRDPSVVTDDPVLHPDGEVLPPGTVIGYPVFDCNGVYASPPQMQEWPAVPGDGEEAAGEIGGSSGGN
In the case of B4, the binding result in [4] was “binds”.

B5: AtNF-YC3 HFD (AA 55-148), untagged (domain or fragment, UniProt Q9ZVL3 55-148)
chain: TQFKEIEKTTDFKNHSLPLARIKKIMKADEDVRMISAEAPVVFARACEMFILELTLRSWNHTEENKRRTLQKNDIAAAVTRTDIFDFLVDIVPR
With B5, the binding entry in assay [5] is “binds”.

B6: AtNF-YC2 (protein, UniProt Q8LCG7 1-199)
chain: MEQSEEGQQQQQQGVMDYVPPHAYQSGPVNAASHMAFQQAHHFHHHHQQQQQQQLQMFWANQMQEIEHTTDFKNHTLPLARIKKIMKADEDVRMISAEAPVIFAKACEMFILELTLRAWIHTEENKRRTLQKNDIAAAISRTDVFDFLVDIIPRDELKEEGLGVTKGTIPSVVGSPPYYYLQQQGMMQHWPQEQHPDES
For the molecule B6, the binding result in [2], in [3], in assay [6] and in assay [7] was “binds weakly” each time.

B7: AtNF-YC6 (protein, UniProt Q9FGP7 1-202)
chain: MAENNNNNGDNMNNDNHQQPPSYSQLPPMASSNPQLRNYWIEQMETVSDFKNRQLPLARIKKIMKADPDVHMVSAEAPIIFAKACEMFIVDLTMRSWLKAEENKRHTLQKSDISNAVASSFTYDFLLDVVPKDESIATADPGFVAMPHPDGGGVPQYYYPPGVVMGTPMVGSGMYAPSQAWPAAAGDGEDDAEDNGGNGGGN
As for B7, the binding entry in assay [2], in assay [3], in assay [8], in assay [9], in [6] and in [7] was “binds weakly” each time.

B8: AtNF-YC3 (protein, UniProt Q9ZVL3 1-217)
chain: MDQQGQSSAMNYGSNPYQTNAMTTTPTGSDHPAYHQIHQQQQQQLTQQLQSFWETQFKEIEKTTDFKNHSLPLARIKKIMKADEDVRMISAEAPVVFARACEMFILELTLRSWNHTEENKRRTLQKNDIAAAVTRTDIFDFLVDIVPREDLRDEVLGGVGAEAATAAGYPYGYLPPGTAPIGNPGMVMGNPGAYPPNPYMGQPMWQQPGPEQQDPDN
Regarding B8, the binding entry was “binds weakly” in assay [10], “binds” in [2], “binds” in assay [3] and “binds weakly” in assay [8].

B9: His-tagged recombinant AtNF-YC3 (protein, UniProt Q9ZVL3 1-217)
chain: MDQQGQSSAMNYGSNPYQTNAMTTTPTGSDHPAYHQIHQQQQQQLTQQLQSFWETQFKEIEKTTDFKNHSLPLARIKKIMKADEDVRMISAEAPVVFARACEMFILELTLRSWNHTEENKRRTLQKNDIAAAVTRTDIFDFLVDIVPREDLRDEVLGGVGAEAATAAGYPYGYLPPGTAPIGNPGMVMGNPGAYPPNPYMGQPMWQQPGPEQQDPDN
On to B9, for which, in assay [4], the binding entry was “binds”.
